Data published in paper PMC4686221.
No constants are given. Whether binding was seen depends on the method and setting. In cells and extracts the contact can be indirect.

Sequences of proteins named here, by UniProt entry; tags and fusion partners are left off. A change or cut given only in a name is not applied to a line headed by its entry.
UniProt P48432: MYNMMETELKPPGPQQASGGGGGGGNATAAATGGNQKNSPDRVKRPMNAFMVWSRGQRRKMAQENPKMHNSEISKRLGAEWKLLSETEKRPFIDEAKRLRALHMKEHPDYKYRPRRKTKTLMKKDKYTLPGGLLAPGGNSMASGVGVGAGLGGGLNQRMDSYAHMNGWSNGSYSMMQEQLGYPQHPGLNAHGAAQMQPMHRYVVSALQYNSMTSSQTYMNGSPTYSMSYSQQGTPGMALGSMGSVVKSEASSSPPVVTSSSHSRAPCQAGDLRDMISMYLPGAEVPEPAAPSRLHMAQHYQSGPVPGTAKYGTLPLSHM
UniProt Q9UBL3: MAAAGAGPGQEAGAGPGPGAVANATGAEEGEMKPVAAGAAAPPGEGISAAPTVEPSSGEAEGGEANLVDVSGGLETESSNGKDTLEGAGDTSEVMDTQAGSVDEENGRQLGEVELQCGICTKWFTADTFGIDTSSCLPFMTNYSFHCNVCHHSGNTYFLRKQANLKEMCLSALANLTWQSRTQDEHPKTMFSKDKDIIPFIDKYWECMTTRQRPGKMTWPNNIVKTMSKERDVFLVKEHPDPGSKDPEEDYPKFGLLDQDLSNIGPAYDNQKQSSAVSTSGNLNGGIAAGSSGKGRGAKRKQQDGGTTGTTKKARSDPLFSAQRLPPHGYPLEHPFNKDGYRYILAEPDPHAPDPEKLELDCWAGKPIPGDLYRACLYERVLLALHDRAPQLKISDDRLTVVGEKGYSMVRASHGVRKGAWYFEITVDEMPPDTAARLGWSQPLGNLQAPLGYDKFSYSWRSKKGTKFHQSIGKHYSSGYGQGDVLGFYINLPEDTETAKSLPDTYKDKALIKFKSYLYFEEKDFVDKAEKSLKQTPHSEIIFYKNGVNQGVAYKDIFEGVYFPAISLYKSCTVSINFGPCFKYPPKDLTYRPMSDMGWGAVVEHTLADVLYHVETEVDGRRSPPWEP

Biological target: FLAG-HA-tagged Sox2 mutant missing the HMG domain (ΔHMG) (mouse) (UniProt P48432)
Test: co-IP; 293T cells transiently transfected with FLAG-HA-tagged Sox2 truncation mutants; anti-FLAG M2 resin, 4°C overnight, BC150 (150 mM KCl), 0.05% NP40; western blot of endogenous subunits

endogenous Ash2l (293 and 293T cells) (from UniProt Q9UBL3 1-628)
binding: no binding
